# Screen size: about 360,000 compounds; about 10,000 (2.8%) were called active. Inconclusive means that the source gave no clear call. Such entries were picked first, then a sample of the others. Calls follow the shape of the dose curve; as a rule, active = well fitted inhibition curve with a large enough effect; inconclusive = small, poorly fitted or top-dose-only effect; inactive = flat fitted curve, though single readings scatter. A potency beside an inconclusive call is a rough fit, not a confirmed value.
# Chains of the proteins cited; added tags and fusions are not shown.
# UniProt P53350, whole entry, looked up: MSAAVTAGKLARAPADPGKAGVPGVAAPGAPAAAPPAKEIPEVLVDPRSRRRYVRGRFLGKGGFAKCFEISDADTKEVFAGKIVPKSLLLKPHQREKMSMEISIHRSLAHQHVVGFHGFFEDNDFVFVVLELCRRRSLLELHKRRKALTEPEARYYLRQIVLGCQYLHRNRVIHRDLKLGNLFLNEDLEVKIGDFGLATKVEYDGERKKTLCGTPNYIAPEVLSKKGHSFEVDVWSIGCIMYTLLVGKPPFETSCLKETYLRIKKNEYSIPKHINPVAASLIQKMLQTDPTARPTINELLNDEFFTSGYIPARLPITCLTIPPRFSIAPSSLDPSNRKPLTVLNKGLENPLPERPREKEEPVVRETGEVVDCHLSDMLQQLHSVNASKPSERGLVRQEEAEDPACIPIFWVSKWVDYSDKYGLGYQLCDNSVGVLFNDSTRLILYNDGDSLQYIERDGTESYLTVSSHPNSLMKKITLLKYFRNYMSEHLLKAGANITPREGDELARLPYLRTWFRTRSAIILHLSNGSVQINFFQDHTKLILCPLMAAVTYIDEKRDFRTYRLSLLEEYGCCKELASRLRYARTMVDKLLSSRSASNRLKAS
# Molecular target: Serine/threonine-protein kinase PLK1 (Homo sapiens) (UniProt P53350)
# Assay: qHTS for Inhibitors of PLK1-PDB (polo-like kinase 1 - polo-box domain): Primary Screen; also: nearly all actives have a fitted effect of over 65% in size; as to max response, negative = inhibition: series mostly up to about 57 µM
# Conditions: Plk1 PBD binding of FITC phosphopeptide, fluorescence polarization
# % is scaled to controls: 0 for no effect and ±100 for the full control effect; potency is read from the fitted curve at half-maximal effect.
Compound,"max response, negative = inhibition",Potency
CC(=O)c1c(C)[nH]c(C(=O)Nc2ccc(S(=O)(=O)N(C)C)cc2)c1C,inactive: -0.848%,
O=S(=O)(NC(=S)NC1CCCCC1)c1ccc(Cl)cc1,inconclusive: -30.8% [inhibitor],
CCOc1ccc(C2C(C(=O)c3ccc(C)o3)=C(O)C(=O)N2c2nc(C)c(C(=O)OC)s2)cc1 (stereo not given),,"inconclusive: 29.9 µM [inhibitor, partial curve]"
COc1ccc(NC(=S)NCCCCCC(=O)C[N+](=O)[O-])cc1,,active: 23.8 µM
NS(=O)(=O)c1cccc(Nc2nc3ccccc3nc2NS(=O)(=O)c2ccc(Cl)cc2)c1,,active: 16.8 µM
CCOC(=O)c1sc(C)c2c1NC(C)(c1ccccc1)NC2=O (stereo not given),,"inconclusive: 21.2 µM [inhibitor, partial curve]"
Cc1ccnc2nc(C(=O)OCC(=O)c3c[nH]c4ccccc34)nn12,inconclusive: -35.8% [inhibitor],
O=C(CN1CCc2ccccc21)Nc1ccc2c(c1)OCO2,,"inconclusive: 21.2 µM [inhibitor, partial curve]"
Cn1nc(C(=O)NNC(=O)c2ccc(Cl)c(S(N)(=O)=O)c2)c2ccccc2c1=O,,"inconclusive: 37.7 µM [inhibitor, single point]"
O=C(Nc1ncc([N+](=O)[O-])s1)c1ccc2c(c1)OCO2,,"inconclusive: 26.7 µM [inhibitor, partial curve]"
CC1(OC(=O)CCc2ccccc2)C(=O)C=C2C=C(c3ccc(C#N)cc3)N(Cc3ccccc3)C=C2C1=O (stereo not given),,"inconclusive: 37.7 µM [inhibitor, partial curve]"
O=C(CSc1ccccn1)Nc1ccc2c(c1)CCC2,,"inconclusive: 16.8 µM [inhibitor, partial curve]"
Cn1/c(=N/NC(=O)c2ccccc2Br)sc2ccccc21,inactive: -5.77%,
Cc1ccc(C)n1-c1ccc(C(=O)NN)cc1,,active: 2.99 µM
CC(=O)N1c2ccc(S(=O)(=O)NCCC(=O)N(C)C3CCCCC3)cc2CC1C (stereo not given),,active: 2.99 µM
Cc1ccccc1N=Nc1c(O)[nH]c2ccccc12,,"inconclusive: 29.9 µM [inhibitor, partial curve]"
COC(=O)c1ccc(OCCCCN(C)Cc2ccccc2)cc1,inactive: 1.68%,
CCOC(=O)C1=C(COC(=O)c2cc(OC)c(OC)c(OC)c2)NC(=O)NC1C (stereo not given),inactive: -5.5%,
Cc1cccc(NC(=S)NCCC(c2ccccc2)c2ccccc2)c1,,"inconclusive: 37.7 µM [inhibitor, single point]"
O=C(Nc1ccccc1F)Nc1cc(S(=O)(=O)N2CCOCC2)ccc1N1CCCC1,inactive: -2.66%,

# Part of the list above, as tab-separated lines.
Compound	max response, negative = inhibition	Potency
NS(=O)(=O)c1cccc(Nc2nc3ccccc3nc2NS(=O)(=O)c2ccc(Cl)cc2)c1		active: 16.8 µM
CCOC(=O)c1sc(C)c2c1NC(C)(c1ccccc1)NC2=O (stereo not given)		inconclusive: 21.2 µM [inhibitor, partial curve]

# Source: PubChem BioAssay AID720504 (National Center for Advancing Translational Sciences (NCATS), 2013)
